# According to the supplement of paper PMC8728848:
# The list shows a part of the results.
# B1: PGP3 (Chlamydia trachomatis), P0CE18 (protein)
# chain: MGNSGFYLYNTQNCVFADNIKVGQMTEPLKDQQIILGTTSTPVAAKMTASDGISLTVSNNPSTNASITIGLDAEKAYQLILEKLGDQILGGIADTIVDSTVQDILDKITTDPSLGLLKAFNNFPITNKIQCNGLFTPRNIETLLGGTEIGKFTVTPKSSGSMFLVSADIIASRMEGGVVLALVREGDSKPYAISYGYSSGVPNLCSLRTRIINTGLTPTTYSLRVGGLESGVVWVNALSNGNDILGITNTSNVSFLEVIPQTNA
# Assays:
# Assay in all cases: glycan array binding signal (z-score within array); higher = stronger binding
# Details in all cases: glycan notation: IUPAC condensed, linker removed
# [1] = target: Gal(b1-3)GlcNAc(b1-3)Gal(b1-4)GlcNAc(b1-6)[Gal(b1-3)GlcNAc(b1-3)]Gal(b1-4)Glc
# Method in brief: (§1)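 Glycan array data came from 3228 arrays in the Consortium for Functional Glycomics database, and only arrays with an available protein sequence were kept. Glycan names were put into IUPAC-condensed notation, and columns mapping to the same glycan were averaged. The binding signal is a within-array Z-score, averaged across arrays of one protein sequence run at different concentrations or buffers and across linkers. A negative Z-score can be read as non-binding.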
# [2] = target: Gal(b1-3)GlcNAc(b1-3)Gal(b1-4)[Fuc(a1-3)]GlcNAc(b1-6)[Gal(b1-3)GlcNAc(b1-3)]Gal(b1-4)Glc
# Method in brief: as §1
# [3] = target: Gal(b1-3)GlcNAc(b1-3)GalNAc
# Method in brief: as §1
# [4] = target: Gal(b1-3)GlcNAc(b1-6)Gal(b1-4)GlcNAc
# Method in brief: as §1
# [5] = target: Gal(b1-3)[Fuc(a1-4)]GlcNAc
# Method in brief: as §1
# [6] = target: Gal(b1-3)[Fuc(a1-4)]GlcNAc(b1-2)Man(a1-3)[Gal(b1-3)[Fuc(a1-4)]GlcNAc(b1-2)Man(a1-6)]Man(b1-4)GlcNAc(b1-4)GlcNAc
# Method in brief: as §1
# [7] = target: Gal(b1-3)[Fuc(a1-4)]GlcNAc(b1-2)Man(a1-3)[Gal(b1-3)[Fuc(a1-4)]GlcNAc(b1-2)Man(a1-6)]Man(b1-4)GlcNAc(b1-4)[Fuc(a1-6)]GlcNAc
# Method in brief: as §1
# [8] = target: Gal(b1-3)[Fuc(a1-4)]GlcNAc(b1-3)Gal(b1-3)[Fuc(a1-4)]GlcNAc
# Method in brief: as §1
# [9] = target: Gal(b1-3)[Fuc(a1-4)]GlcNAc(b1-3)Gal(b1-4)GlcNAc
# Method in brief: as §1
# [10] = target: Gal(b1-3)[Fuc(a1-4)]GlcNAc(b1-3)Gal(b1-4)[Fuc(a1-3)]GlcNAc
# Method in brief: as §1
# [11] = target: Gal(b1-3)[GlcNAc(b1-6)]GalNAc
# Method in brief: as §1
# [12] = target: Gal(b1-3)[Neu5Ac(a2-6)]GalNAc
# Method in brief: as §1
# [13] = target: Gal(b1-3)[Neu5Ac(a2-6)]GlcNAc(b1-6)Gal(b1-4)Glc
# Method in brief: as §1
# [14] = target: Gal(b1-3)[Neu5Ac(b2-6)]GalNAc
# Method in brief: as §1
# Gal(b1-4)Gal = target: Gal(b1-4)Gal
# Method in brief: as §1
# [15] = target: Gal(b1-4)GalNAc(a1-3)[Fuc(a1-2)]Gal(b1-4)GlcNAc
# Method in brief: as §1
# [16] = target: Gal(b1-4)GalNAc(b1-3)[Fuc(a1-2)]Gal(b1-4)GlcNAc
# Method in brief: as §1
# Gal(b1-4)Glc = target: Gal(b1-4)Glc
# Method in brief: as §1
# Gal(b1-4)Glc6S = target: Gal(b1-4)Glc6S
# Method in brief: as §1
# Gal(b1-4)GlcNAc = target: Gal(b1-4)GlcNAc
# Method in brief: as §1
# [17] = target: Gal(b1-4)GlcNAc(a1-6)Gal(b1-4)GlcNAc
# Method in brief: as §1
# Gal(b1-4)GlcNAc(b1-2)Man = target: Gal(b1-4)GlcNAc(b1-2)Man
# Method in brief: as §1
# [18] = target: Gal(b1-4)GlcNAc(b1-2)Man(a1-3)Man(b1-4)GlcNAc(b1-4)GlcNAc
# Method in brief: as §1
# [19] = target: Gal(b1-4)GlcNAc(b1-2)Man(a1-3)[Gal(b1-4)GlcNAc(b1-2)Man(a1-6)]Man(b1-4)GlcNAc(b1-4)GlcNAc
# Method in brief: as §1
# [20] = target: Gal(b1-4)GlcNAc(b1-2)Man(a1-3)[Gal(b1-4)GlcNAc(b1-2)Man(a1-6)]Man(b1-4)GlcNAc(b1-4)[Fuc(a1-6)]GlcNAc
# Method in brief: as §1
# [21] = target: Gal(b1-4)GlcNAc(b1-2)Man(a1-3)[Gal(b1-4)GlcNAc(b1-2)][GlcNAc(b1-4)]Man(b1-4)GlcNAc(b1-4)GlcNAc
# Method in brief: as §1
# [22] = target: Gal(b1-4)GlcNAc(b1-2)Man(a1-3)[GlcNAc(b1-2)Man(a1-6)]Man(b1-4)GlcNAc(b1-4)GlcNAc
# Method in brief: as §1
# [23] = target: Gal(b1-4)GlcNAc(b1-2)Man(a1-3)[Man(a1-6)]Man(b1-4)GlcNAc(b1-4)GlcNAc
# Method in brief: as §1
# [24] = target: Gal(b1-4)GlcNAc(b1-2)Man(a1-6)Man(b1-4)GlcNAc(b1-4)GlcNAc
# Method in brief: as §1
# [25] = target: Gal(b1-4)GlcNAc(b1-2)Man(a1-6)[GlcNAc(b1-2)Man(a1-3)]Man(b1-4)GlcNAc(b1-4)GlcNAc
# Method in brief: as §1
# [26] = target: Gal(b1-4)GlcNAc(b1-2)Man(a1-6)[Man(a1-3)]Man(b1-4)GlcNAc(b1-4)GlcNAc
# Method in brief: as §1
# [27] = target: Gal(b1-4)GlcNAc(b1-2)[Gal(b1-4)GlcNAc(b1-4)]Man(a1-3)[Gal(b1-4)GlcNAc(b1-2)Man(a1-6)]Man(b1-4)GlcNAc(b1-4)GlcNAc
# Method in brief: as §1
# [28] = target: Gal(b1-4)GlcNAc(b1-2)[Gal(b1-4)GlcNAc(b1-4)]Man(a1-3)[Gal(b1-4)GlcNAc(b1-2)[Gal(b1-4)GlcNAc(b1-6)]Man(a1-6)]Man(b1-4)GlcNAc(b1-4)GlcNAc
# Method in brief: as §1
# [29] = target: Gal(b1-4)GlcNAc(b1-2)[Gal(b1-4)GlcNAc(b1-4)]Man(a1-3)[GlcNAc(b1-4)][Gal(b1-4)GlcNAc(b1-2)Man(a1-6)]Man(b1-4)GlcNAc(b1-4)GlcNAc
# Method in brief: as §1
# [30] = target: Gal(b1-4)GlcNAc(b1-2)[Gal(b1-4)GlcNAc(b1-4)]Man(a1-3)[GlcNAc(b1-4)][Gal(b1-4)GlcNAc(b1-2)[Gal(b1-4)GlcNAc(b1-6)]Man(a1-6)]Man(b1-4)GlcNAc(b1-4)GlcNAc
# Method in brief: as §1
# [31] = target: Gal(b1-4)GlcNAc(b1-2)[Gal(b1-4)GlcNAc(b1-6)]Man(a1-6)[Gal(b1-4)GlcNAc(b1-2)Man(a1-3)]Man(b1-4)GlcNAc(b1-4)GlcNAc
# Method in brief: as §1
# [32] = target: Gal(b1-4)GlcNAc(b1-2)[Gal(b1-4)GlcNAc(b1-6)]Man(a1-6)[GlcNAc(b1-4)][Gal(b1-4)GlcNAc(b1-2)Man(a1-3)]Man(b1-4)GlcNAc(b1-4)GlcNAc
# Method in brief: as §1
# [33] = target: Gal(b1-4)GlcNAc(b1-3)Gal(b1-3)GlcNAc
# Method in brief: as §1
binder,measurement,setting,value
B1,glycan array binding signal (z-score),[1],0.18
same,glycan array binding signal (z-score),[2],-0.39
same,glycan array binding signal (z-score),[3],0.155
same,glycan array binding signal (z-score),[4],-0.049
same,glycan array binding signal (z-score),[5],-0.42
same,glycan array binding signal (z-score),[6],-0.88
same,glycan array binding signal (z-score),[7],1.46
same,glycan array binding signal (z-score),[8],0.789
same,glycan array binding signal (z-score),[9],0.457
same,glycan array binding signal (z-score),[10],-0.395
same,glycan array binding signal (z-score),[11],0.242
same,glycan array binding signal (z-score),[12],-0.547
same,glycan array binding signal (z-score),[13],1.51
same,glycan array binding signal (z-score),[14],0.119
same,glycan array binding signal (z-score),Gal(b1-4)Gal,0.247
same,glycan array binding signal (z-score),[15],0.271
same,glycan array binding signal (z-score),[16],-0.442
same,glycan array binding signal (z-score),Gal(b1-4)Glc,-0.194
same,glycan array binding signal (z-score),Gal(b1-4)Glc6S,-0.713
same,glycan array binding signal (z-score),Gal(b1-4)GlcNAc,-0.548
same,glycan array binding signal (z-score),[17],0.562
same,glycan array binding signal (z-score),Gal(b1-4)GlcNAc(b1-2)Man,-0.69
same,glycan array binding signal (z-score),[18],0.214
same,glycan array binding signal (z-score),[19],-0.357
same,glycan array binding signal (z-score),[20],0.715
same,glycan array binding signal (z-score),[21],1.19
same,glycan array binding signal (z-score),[22],-0.296
same,glycan array binding signal (z-score),[23],0.121
same,glycan array binding signal (z-score),[24],-0.363
same,glycan array binding signal (z-score),[25],0.379
same,glycan array binding signal (z-score),[26],0.095
same,glycan array binding signal (z-score),[27],-1.24
same,glycan array binding signal (z-score),[28],-0.226
same,glycan array binding signal (z-score),[29],-1.51
same,glycan array binding signal (z-score),[30],-1.75
same,glycan array binding signal (z-score),[31],0.201
same,glycan array binding signal (z-score),[32],0.579
same,glycan array binding signal (z-score),[33],0.53

# Another view of part of the listing above:
binder | measurement | setting | value
B1 | glycan array binding signal (z-score) | [9] | 0.457
same | glycan array binding signal (z-score) | [17] | 0.562
same | glycan array binding signal (z-score) | [22] | -0.296
